Source: PubChem BioAssay AID540256 (National Center for Advancing Translational Sciences (NCATS), 2011)
Screen size: about 300,000 compounds; about 3,700 (1.2%) were called active. The shares of active, inactive and inconclusive entries below differ from those in the screen. The call rests on the fitted dose curve; tested in HEK293 cells. Potencies of inconclusive entries are doubtful fits and often do not repeat.

Test: qHTS for Inhibitors of binding or entry into cells for Lassa Virus; further: nearly all actives have a fitted effect of over 50% in size
Conditions: Lassa virus pseudotype entry inhibition, cell reporter; activity change, negative = inhibition: at 37.9 µM (top of the series) unless noted
On the % scale 0 is the no-effect control and ±100 the full control effect; potency means the concentration at half of the fitted maximal effect.

Row | Structure (SMILES) | Potency | activity change, negative = inhibition
1 | NS(=O)(=O)c1cccc(-c2cc3ccncc3cc2OCc2ccccc2)c1 | inconclusive: 0.0089 µM [inhibitor, full curve, poor fit] | –
2 | Cc1ccc(Nc2c(-c3ccccn3)nc3cc(C)ccn23)cc1 | inconclusive: 2.51 µM [inhibitor, full curve, poor fit] | –
3 | COc1ccc(CCNC(=O)CSc2cn(Cc3cccc(C)c3)c3ccccc23)cc1OC | inconclusive: 32.6 µM [inhibitor, single point] | –
4 | CCCCNS(=O)(=O)c1ccc(NC(=O)C2c3ccccc3Oc3ccccc32)cc1 | inconclusive: 17.8 µM [inhibitor, partial curve, poor fit] | –
5 | CCC1CCCCN1C(=O)CN1C(=O)c2ccccc2S1(=O)=O (stereo unspecified) | inconclusive: 35.5 µM [inhibitor, single point] | –
6 | CCOC(=O)c1ccc(NS(=O)(=O)N2CCCCCC2)cc1 | inconclusive: 35.5 µM [inhibitor, single point] | –
7 | COc1ccc2sc3c(=O)[nH]c4ccccc4c3c2c1 | inactive | –
8 | Cc1ccc(/C=N/NC(=O)c2cccnc2)s1 | inactive | –
9 | CN1CN(C)c2ccc([N+](=O)[O-])c3cccc1c23 | inconclusive: 35.5 µM [inhibitor, single point] | –
10 | CN1CCN(Cc2ccc(-c3cc4ncnc(Nc5ccc(OCc6cccc(F)c6)c(Cl)c5)c4s3)o2)CC1 | active: 19.9 µM | –
11 | CC(=O)N1CCc2c(sc(NC(=O)C3COc4ccccc4O3)c2C(N)=O)C1 (stereo unspecified) | inactive | –
12 | COc1cc(NC(=O)CSc2ccc(-c3ccccn3)nn2)cc(OC)c1 | inconclusive: 35.5 µM [inhibitor, single point] | –
13 | CCOc1ccccc1NC(=O)c1sc2nc(C)nc(N3CCOCC3)c2c1C | inconclusive: 5.62 µM [inhibitor, single point] | –
14 | COc1cccc(CNS(=O)(=O)c2ccccc2Br)c1 | inconclusive: 15.8 µM [activator, partial curve, poor fit] | –
15 | O=C(CSc1nc(-c2ccc(F)cc2)[nH]c1-c1ccc(F)cc1)Nc1ccc2c(c1)OCO2 | inconclusive: 5.62 µM [inhibitor, full curve, poor fit] | –
16 | CCC(c1nnnn1CCOC)N(Cc1cc2cc(C)c(C)cc2[nH]c1=O)CC1CCCO1 (stereo unspecified) | inconclusive: 10.3 µM [inhibitor, partial curve, poor fit] | –
17 | CCOC(=O)CC1C(=O)NCCN1C1CCCC1 (stereo unspecified) | inactive | –
18 | Cc1ccccc1Nc1c(-c2cccnc2)nc2ccc(Cl)cn12 | inactive | –
19 | CCc1nn2c(=O)c(S(=O)(=O)Nc3ccc(Cl)cc3)c(C)nc2s1 | inactive | –
20 | COc1ccc(NC(=S)NC(NC(=O)c2ccc(Cl)cc2Cl)C(Cl)(Cl)Cl)c([N+](=O)[O-])c1 (stereo unspecified) | inactive | –
21 | C/C(=N\NC(=O)c1ccc(Cl)c(Cl)c1)c1ccc(Br)s1 | inconclusive: 17.8 µM [inhibitor, partial curve] | –
22 | COc1cc(OC)c(N(C)S(=O)(=O)c2cccc(C(=O)OCC(=O)c3c[nH]c4ccccc34)c2)cc1Cl | inconclusive: 12.6 µM [inhibitor, partial curve, poor fit] | –

As entered above.
Value of COc1cccc(CNS(=O)(=O)c2ccccc2Br)c1 under Potency: inconclusive: 15.8 µM [activator, partial curve, poor fit]
Value of CN1CN(C)c2ccc([N+](=O)[O-])c3cccc1c23 under Potency: inconclusive: 35.5 µM [inhibitor, single point]
Value of CCOc1ccccc1NC(=O)c1sc2nc(C)nc(N3CCOCC3)c2c1C under Potency: inconclusive: 5.62 µM [inhibitor, single point]
Value of NS(=O)(=O)c1cccc(-c2cc3ccncc3cc2OCc2ccccc2)c1 under Potency: inconclusive: 0.0089 µM [inhibitor, full curve, poor fit]

Carrying on.

Row | Structure (SMILES) | Potency | activity change, negative = inhibition
23 | CC(CCc1ccccc1)NC(=O)Cn1c(=O)nc(-c2ccccc2)c2ccccc21 (stereo unspecified) | inconclusive: 25.1 µM [inhibitor, single point] | –
24 | CNC(=O)O/N=C(\C)Cc1nnn(-c2cc(C)on2)n1 | inconclusive: 0.562 µM [inhibitor, full curve, poor fit] | –
25 | O=C(Nc1ccc2nc(-c3ccc(Br)o3)[nH]c2c1)c1cccs1 | inconclusive: 35.5 µM [inhibitor, single point] | –
26 | CC(C)Cn1c(SCC(=O)NC(=O)Nc2ccc3c(c2)OCCO3)nc2ccccc2c1=O | inconclusive: 18.3 µM [inhibitor, single point] | –
27 | CC1CCCN(S(=O)(=O)c2ccc3c(c2)c(=O)nc2ccccn23)C1 (stereo unspecified) | inactive | –
28 | Cc1ccc(/C([O-])=C(/C(=S)NCc2ccc3c(c2)OCO3)[n+]2ccc(N(C)C)cc2)c(C)c1 | inconclusive: 4.47 µM [inhibitor, partial curve, poor fit] | –
29 | Cc1ccc(-c2cn3c(n2)sc2cc(C(=O)NCCCc4ccccc4)ccc23)c(C)c1 | inactive | –
30 | COc1cc2c(cc1OC)CN(C(=O)CCOc1ccccc1C)CC2 | inconclusive: 6.31 µM [inhibitor, single point] | –
31 | COc1ccc([C@H]2CC(=O)c3c(O)cc(O)cc3O2)cc1O | inconclusive: 35.5 µM [activator, partial curve, poor fit] | –
32 | CCN(CC)S(=O)(=O)c1ccc(C(=O)Nc2cc3oc4ccccc4c3cc2OC)cc1 | inconclusive: 2.82 µM [inhibitor, partial curve, poor fit] | –
33 | O=C1Nc2ccccc2C12OCC1(CO2)COC2(OC1)C(=O)Nc1ccccc12 (stereo unspecified) | inconclusive: 25.1 µM [inhibitor, single point] | –
34 | O=C(CCSCc1ccccc1Cl)NCc1ccc(F)cc1Cl | inactive | –
35 | Cc1cc2c(n1-c1ccc(C(=O)NCc3ccccc3Cl)cc1)CCCC2 | inconclusive: 8.91 µM [inhibitor, partial curve, poor fit] | –
36 | CCCCc1ccc(C2C3=C(CC(C)(C)CC3=O)NC3=C2C(=O)c2ccccc23)cc1 (stereo unspecified) | inconclusive: 22.4 µM [inhibitor, single point] | –
37 | O=C(NC1CCCCC1)c1ccc(COc2ccccc2)o1 | inconclusive: 11.2 µM [inhibitor, partial curve] | –
38 | Cc1cc(C)c(NN=c2c(=O)c3ccccc3c2=O)c(C)c1 | inconclusive: 20 µM [activator, single point] | –
39 | CN(CCC1CCOCC1)C(=O)CC1C(=O)NCCN1Cc1ccoc1 (stereo unspecified) | inactive | –
40 | Cc1cnc(C(=O)Nc2ccc(C(=O)N3CCCCC3)cc2)cn1 | inactive | –
41 | C[C@@H](C(=O)NCCc1c[nH]c2ccccc12)[C@H]1C[C@]1(C)[C@H](NC(=O)OCc1ccccc1)c1ccccc1 | inconclusive: 14.6 µM [inhibitor, partial curve, poor fit] | –
42 | CCN1CCN(c2ccc(S(=O)(=O)N3CCCCC3)cc2NC(=O)c2ccc([N+](=O)[O-])s2)CC1 | inconclusive: 22.4 µM [inhibitor, partial curve, poor fit] | –
43 | CCOc1ccc(NC(=O)Cn2nnc3c(cnn3-c3ccc(F)cc3)c2=O)cc1 | inactive | –
44 | CCOC(=O)c1ccc(NC(=O)c2ccccc2N(C)S(=O)(=O)c2ccccc2)cc1 | inconclusive: 6.31 µM [inhibitor, partial curve] | –

Row | Structure (SMILES) | Potency | activity change, negative = inhibition
45 | Cc1cc(NCc2ccccc2)nc(-c2ccccc2O)n1 | inconclusive: 23.1 µM [inhibitor, partial curve, poor fit] | –
46 | CC1(C)C(=O)OC(c2cccs2)C2(CCCCC2)C1=O (stereo unspecified) | inconclusive: 23.1 µM [activator, partial curve, poor fit] | –
47 | Cn1c(CO)cnc1SCc1ccc(Cl)cc1 | inactive | –
48 | O=S(=O)(NCc1nc2cccnc2n1Cc1ccccc1Cl)c1ccc2c(c1)CCCC2 | inactive | –
49 | O=C(COCc1cc(-c2ccc(F)cc2)on1)Nc1cc(F)ccc1F | inconclusive: 14.1 µM [activator, single point] | –
50 | O=c1c(NCc2cccs2)nccn1-c1ccc(F)cc1 | inactive | –
51 | COc1cccc(CNc2ccc3[nH]c(=O)[nH]c3c2)c1OCc1ccccc1 | inconclusive: 17.8 µM [inhibitor, single point] | –
52 | Cc1nc2ccccc2n1CCc1nc2c3ccccc3nc(SCc3ccc(C#N)cc3)n2n1 | inactive | –
53 | COc1cccc(NC(=O)CN(CCc2ccccc2)S(=O)(=O)c2ccc(Cl)cc2)c1 | inactive | –
54 | Cc1nc(CSc2ccc(Cl)cc2)cs1 | – | inconclusive: 27.3% [activator]
55 | COC(=O)c1c(C)oc(C)c1S(=O)(=O)N(Cc1ccccc1)C(C)C | inactive | –
56 | Cc1nnc(SCC(=O)Nc2ncc(S(=O)(=O)c3ccc([N+](=O)[O-])cc3)s2)s1 | inconclusive: 35.5 µM [activator, single point] | –
57 | C=CCn1c(COc2cccc3cccnc23)nnc1SCC(=O)OC | inconclusive: 0.73 µM [activator, partial curve, poor fit] | –
58 | CCOC(=O)CSc1nc2ccc(NC(=O)c3cccc(F)c3)cc2s1 | inconclusive: 28.2 µM [activator, single point] | –
59 | Cc1ccccc1Nc1nc(N)nc(COC(=O)c2cccc(S(=O)(=O)NCc3ccccc3)c2)n1 | inconclusive: 15.8 µM [inhibitor, partial curve, poor fit] | –
60 | COc1ccc(CNC(=O)c2ccc3c(c2)N(Cc2c(F)cccc2Cl)C(=O)CS3)cc1 | inconclusive: 11.2 µM [inhibitor, single point] | –
61 | C/C(=N\NC(=O)COc1cc(C)cc(C)c1)c1ccc(N2CCOCC2)cc1 | inconclusive: 2.82 µM [inhibitor, partial curve, poor fit] | –
62 | C#CCNC(=O)C1CCN(c2ccc(S(=O)(=O)N3CCOCC3)cc2Cl)CC1 | inconclusive: 1 µM [inhibitor, single point] | –
63 | O=C(CCn1cccn1)Nc1ccc(Br)cc1F | inconclusive: 35.5 µM [activator, single point] | –
64 | Fc1ccc(-c2nnn(Cc3ccccc3Cl)n2)cc1 | inconclusive: 35.5 µM [activator, single point] | –
65 | CCOC(=O)C1=C(c2ccccc2)NC(=O)N(C(C)=O)C1c1cccc([N+](=O)[O-])c1 (stereo unspecified) | inconclusive: 6.31 µM [inhibitor, partial curve, poor fit] | –
66 | COc1ccc(N2CCN(c3ncccn3)CC2)cc1 | inconclusive: 23.1 µM [activator, single point] | –
